Data: the RNAGym collection of RNA variant scans (doi:10.1126/science.aae0568)
Variants at the background level are over-represented here.

B1: tRNA (parent)
chain: GUUCCGUUGGCGUAAUGGUAACGCGUCUCCCUCCUAAGGAGAAGACUGCGGGUUCGAGUCCCGUACGGAACG

Variants of: B1
Test: yeast fitness relative to wild type (ratio to wild type); higher = fitter; tRNA-Arg(CCU), competitive growth, 37 C, YPD
In short: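 Amplicons of the tRNA-Arg(CCU) gene were sequenced, 100-nucleotide paired-end, from the start population and from each end population of a pooled yeast competition. The competition, in six parallel replicates, lasted 24 hours in YPD at 37°C. Fitness relative to wild type was calculated from changes in genotype frequencies. Genotypes had to have ≥ 100 starting reads, and estimates < 0.5 were set to 0.5.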

Row | Variant | yeast fitness
1 | G6A A37G G41A G52A | ≤ 0.5
2 | G6A A40C A45C | ≤ 0.5
3 | G6A A40G C55G | ≤ 0.5
4 | G6A A43G | 0.801
5 | G6A A45C C49A C55U | ≤ 0.5
6 | G6A C11A A37G | ≤ 0.5
7 | G6A C11A C31U | ≤ 0.5
8 | G6A C11A C31U U59A G63A | ≤ 0.5
9 | G6A C11G A15G U26A U32A G38A A40C | ≤ 0.5
10 | G6A C11G A20G | ≤ 0.5
11 | G6A C11G A21G C27G C29U C61U | ≤ 0.5
12 | G6A C11G A21U | ≤ 0.5
13 | G6A C11U C33U C66U | ≤ 0.5
14 | G6A C11U C49G C62U | ≤ 0.5
15 | G6A C11U G23A C46A C55A | ≤ 0.5
16 | G6A C22G C24U U47A A70C | ≤ 0.5
17 | G6A C22G C55G | ≤ 0.5
18 | G6A C22G U47A A70C | ≤ 0.5
19 | G6A C22G U47A C55U A65C | ≤ 0.5
20 | G6A C22U A37G C49A | ≤ 0.5
21 | G6A C24G C31U A57C | ≤ 0.5
22 | G6A C24U A57G C61G C66U A69U | ≤ 0.5
23 | G6A C24U C61G | ≤ 0.5
24 | G6A C24U U26G C34A C46G G56A A65C | ≤ 0.5

Row | Variant | yeast fitness
25 | G6A C27A C30U G41C A43U C49A G67U | ≤ 0.5
26 | G6A C29A C31G A69U | ≤ 0.5
27 | G6A C29U C31U C33G U35C | ≤ 0.5
28 | G6A C30G A45U | ≤ 0.5
29 | G6A C30U A40G C55U U64C | ≤ 0.5
30 | G6A C33G A36U A57C | ≤ 0.5
31 | G6A C33U G48A | ≤ 0.5
32 | G6A C34G C62U G68C | ≤ 0.5
33 | G6A C46G G52C C62G C66U | ≤ 0.5
34 | G6A C49G G50A | ≤ 0.5
35 | G6A C49U | 0.959
36 | G6A G9C A15G U32G | ≤ 0.5
37 | G6A G9C C31U | ≤ 0.5
38 | G6A G10C A20G C22U G38C C61G | ≤ 0.5
39 | G6A G10C C34U A40C | ≤ 0.5
40 | G6A G10C U13C A15U C61A | ≤ 0.5
41 | G6A G12A A20G C22G U26A G48C | ≤ 0.5
42 | G6A G12A A20G C22G U26A G48C G68U | ≤ 0.5
43 | G6A G12A C27G G68C A70U | 0.549
44 | G6A G12A C30G A40U | ≤ 0.5
45 | G6A G12C A37U | ≤ 0.5
46 | G6A G17A C27U C31G C66G | ≤ 0.5
47 | G6A G17A U32C | ≤ 0.5
48 | G6A G17C U19C C29A U32C G44C G48A | ≤ 0.5

Row | Variant | yeast fitness
49 | G6A G18A G23C C24G C46G | ≤ 0.5
50 | G6A G18C C30G C34A A37C | ≤ 0.5
51 | G6A G23A C27U A45C C60A | ≤ 0.5
52 | G6A G23C C27A A42G C61A | ≤ 0.5
53 | G6A G39U | 0.79
54 | G6A G41A C49A C66A | ≤ 0.5
55 | G6A G41C A42G A43G C49U | ≤ 0.5
56 | G6A G48C G58A | 0.57
57 | G6A U8C A69C | 0.678
58 | G6A U8C C22G U47A A70C | ≤ 0.5
59 | G6A U13C | 0.937
60 | G6A U13G A45C C49U | ≤ 0.5
61 | G6A U16C G25C C27G C30G G38C | ≤ 0.5
62 | G6A U16G A21G A40G A42U C55A A69C | ≤ 0.5
63 | G6A U19C C61G G63C A70G | ≤ 0.5
64 | G6A U19G U28A A42U C60U | ≤ 0.5
65 | G6A U32A A37G | ≤ 0.5
66 | G6A U32G C49G C55A | ≤ 0.5
67 | G6A U53C A57C | ≤ 0.5
68 | G6A U54C C60G | ≤ 0.5
69 | G6C A14C C60G G63C | ≤ 0.5
70 | G6C A14G A20C C62G | ≤ 0.5
71 | G6C A14G A20C U54C U64A G67A | ≤ 0.5
72 | G6C A14G C30G C66U | ≤ 0.5

Row | Variant | yeast fitness
73 | G6C A15G G56C | ≤ 0.5
74 | G6C A15U U26A | ≤ 0.5
75 | G6C A20C C34G | ≤ 0.5
76 | G6C A20U C29A G58A C61G A70U | ≤ 0.5
77 | G6C A21C G56A | ≤ 0.5
78 | G6C A21G C24G C31A G44A | ≤ 0.5
79 | G6C A21U C61G A69C | ≤ 0.5
80 | G6C A40U C61A G63C | ≤ 0.5
81 | G6C A45U C49A G52C G56A A69G | ≤ 0.5
82 | G6C C11A C34G A69U | ≤ 0.5
83 | G6C C11A C34G C61G C62G | ≤ 0.5
84 | G6C C11G A14U C22U G44A C55A G67A | ≤ 0.5
85 | G6C C11G A15C G25C C27G C30G G38C C60G A70G | ≤ 0.5
86 | G6C C11G A57U | ≤ 0.5
87 | G6C C11G C27U G58C U64G | ≤ 0.5
88 | G6C C11U A21C A65G | ≤ 0.5
89 | G6C C22A C31G A65C | ≤ 0.5
90 | G6C C22A G41A G44C C49A | ≤ 0.5
91 | G6C C22U C24G C27U C29A C30U C31G G58A | ≤ 0.5
92 | G6C C29A A42G U54A C60G G68A | ≤ 0.5
93 | G6C C29A A45U C46G U47A G50A U64G | ≤ 0.5
94 | G6C C30A A45U C55U | ≤ 0.5
95 | G6C C30G C66U | ≤ 0.5
96 | G6C C33G A36C C49A C60G A70U | ≤ 0.5

Row | Variant | yeast fitness
97 | G6C C34A | 0.611
98 | G6C C34A A37G G41A | ≤ 0.5
99 | G6C C34U | 0.648
100 | G6C C34U G52C C66U | ≤ 0.5
101 | G6C C49A A70U | ≤ 0.5
102 | G6C G9C C27G A37U U54C C62A G68C | ≤ 0.5
103 | G6C G9C G18U U54C | ≤ 0.5
104 | G6C G17A A36U C46A C66A | 0.512
105 | G6C G17A A36U C60A | ≤ 0.5
106 | G6C G23A C33U G44C | ≤ 0.5
107 | G6C G25A C60G G68C | ≤ 0.5
108 | G6C G38C U59C | ≤ 0.5
109 | G6C G39C C49U G67C | ≤ 0.5
110 | G6C G52C A65G | ≤ 0.5
111 | G6C U7A C27U C49U A70C | ≤ 0.5
112 | G6C U7A G23C C62U | ≤ 0.5
113 | G6C U7C A45C A65C | ≤ 0.5
114 | G6C U7C G9C G38C G41A C55U G67C | ≤ 0.5
115 | G6C U7C G48A | 0.614
116 | G6C U7C G48A A70U | ≤ 0.5
117 | G6C U8C C27U G48A A57G | ≤ 0.5
118 | G6C U8C C30G | ≤ 0.5
119 | G6C U13A | 0.718
120 | G6C U13C C31G C33A | ≤ 0.5

Row | Variant | yeast fitness
121 | G6C U13C G50A | ≤ 0.5
122 | G6C U16G U35A G51C G68A | ≤ 0.5
123 | G6C U19A C55U G56C | ≤ 0.5
124 | G6C U19C U32A A42C | ≤ 0.5
125 | G6C U26C A43C A57G C66U | ≤ 0.5
126 | G6C U28G | 0.644
127 | G6U C11A U13A G52A G63U | ≤ 0.5
128 | U7A A14G | 0.709
129 | U7A A14G C31U A40U | ≤ 0.5
130 | U7A A14G C31U G39C A40C A45U G68C | 0.555
131 | U7A A15C A43U | ≤ 0.5
132 | U7A A15C C24G C31A G38C G51C C61G | ≤ 0.5
133 | U7A A15U C30G A42C U59A C60U | ≤ 0.5
134 | U7A A20C A40U G44A C61A | ≤ 0.5
135 | U7A A21C A36C | ≤ 0.5
136 | U7A A21C C33A A45U A57U | ≤ 0.5
137 | U7A A21G C30G A36G C46G | ≤ 0.5
138 | U7A A21U C46G | ≤ 0.5
139 | U7A A21U C61G C66U A69U | ≤ 0.5
140 | U7A A37G A40G A43G G52C G56A U59G | ≤ 0.5
141 | U7A A37U G50A U53C C62A A69U | ≤ 0.5
142 | U7A A40U | 0.714
143 | U7A C11A C27G | ≤ 0.5
144 | U7A C11A G18A C31U C34U G51C G56C | ≤ 0.5

Row | Variant | yeast fitness
145 | U7A C11A G18A C31U C34U U47C C49A A57U | ≤ 0.5
146 | U7A C11G | ≤ 0.5
147 | U7A C11G A36G G63A | ≤ 0.5
148 | U7A C22A A57C | ≤ 0.5
149 | U7A C22A C24U A36U C61A | ≤ 0.5
150 | U7A C22G C30U A37G A45U | ≤ 0.5
151 | U7A C22U G39C C66U | ≤ 0.5
152 | U7A C29A C31A | ≤ 0.5
153 | U7A C29A G50C U54C | ≤ 0.5
154 | U7A C29U A36U A43G | ≤ 0.5
155 | U7A C30U A57G | ≤ 0.5
156 | U7A C31A G67A A69C | ≤ 0.5
157 | U7A C34A G56C G68C | ≤ 0.5
158 | U7A C34A U35C | ≤ 0.5
159 | U7A C34G U53A | ≤ 0.5
160 | U7A C60G A70C | ≤ 0.5
161 | U7A G9A C24A G63A | ≤ 0.5
162 | U7A G9C C29U C30U C34G U53G | ≤ 0.5
163 | U7A G9C G17C | 0.55
164 | U7A G9C G17C G48A U53A | ≤ 0.5
165 | U7A G10A A40G G48A | ≤ 0.5
166 | U7A G10A C33A A36C G51A | ≤ 0.5
167 | U7A G10A G41U C49U | 0.615
